Measured values as given in patent US20170145472A1, “METHOD OF DETECTING HELICASE ACTIVITY” (University of Macau, priority 2015, published 2017).
Some entries share one result that the patent states for a list of compounds. At least one structure is not confirmed: it was looked up by name or label, or the drawing left a doubt.

By UniProt entry, the sequences of proteins in these tests, tags left out. Residues count along the entry.
UniProt P27958, 1027-1657: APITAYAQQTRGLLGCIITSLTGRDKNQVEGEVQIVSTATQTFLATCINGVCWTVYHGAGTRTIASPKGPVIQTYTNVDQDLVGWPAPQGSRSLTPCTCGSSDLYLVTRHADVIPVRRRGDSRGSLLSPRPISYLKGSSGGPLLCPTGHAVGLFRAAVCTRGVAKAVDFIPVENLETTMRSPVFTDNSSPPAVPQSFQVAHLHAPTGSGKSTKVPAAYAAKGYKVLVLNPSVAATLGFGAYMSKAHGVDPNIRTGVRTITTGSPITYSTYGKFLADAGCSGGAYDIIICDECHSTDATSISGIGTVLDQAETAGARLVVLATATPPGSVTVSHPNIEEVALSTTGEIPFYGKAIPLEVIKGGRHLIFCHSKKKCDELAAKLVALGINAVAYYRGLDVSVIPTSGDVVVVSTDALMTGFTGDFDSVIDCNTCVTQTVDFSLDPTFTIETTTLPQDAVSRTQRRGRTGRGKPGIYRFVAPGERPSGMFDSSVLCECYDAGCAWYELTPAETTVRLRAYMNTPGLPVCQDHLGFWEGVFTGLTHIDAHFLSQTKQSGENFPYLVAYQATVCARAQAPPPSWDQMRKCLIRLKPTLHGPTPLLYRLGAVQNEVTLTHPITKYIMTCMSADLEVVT

Molecular target: T1, helicase (Hepatitis C virus genotype 1a, UniProt P27958)
T1 construct: upon the addition of 0.8 μM HCV NS3 helicase; purchased Prospec Inc. (Ness-Ziona, Israel)
Assay: Luminescence response of complexes towards helicase alone
Details: for selectivity towards G-quadruplex DNA over helicase (IG4/Ihelicase): PS2.M G-quadruplex DNA over helicase, FIG. 17; for luminescence enhancement in the presence of helicase only: helicase alone, no DNA
From the text: M G-quadruplex DNA over helicase, IG4/Ihelicase refers to the ratio of the lunminscent response of PS2. M G-quadruplex DNA over helicase.

SMILES	selectivity towards G-quadruplex DNA over helicase (IG4/Ihelicase)	luminescence enhancement in the presence of helicase only
Cc1ccc2ccc3ccc(C)[n+]4c3c2[n+]1[Ir-3]412([c]3ccccc3-c3ccc4ccccc4[n+]31)[c]1ccccc1-c1ccc3ccccc3[n+]12.F[P-](F)(F)(F)(F)F [Complex 11]	relatively low when compared with complex 9	enhanced with addition of helicase only
F[P-](F)(F)(F)(F)F.c1cc[c]2c(c1)-c1ccc3ccccc3[n+]1[Ir-3]213([c]2ccccc2-c2ccc4ccccc4[n+]21)[n+]1cccc2c4nccnc4c4ccc[n+]3c4c21 [Complex 13]	relatively low when compared with complex 9	enhanced with addition of helicase only
Cc1cc(-c2ccccc2)c2ccc3c(-c4ccccc4)cc(C)[n+]4c3c2[n+]1[Ir-3]412([c]3ccccc3-c3ccc4ccccc4[n+]31)[c]1ccccc1-c1ccc3ccccc3[n+]12.F[P-](F)(F)(F)(F)F [Complex 12]	relatively low when compared with complex 9	enhanced with addition of helicase only
Clc1cc[n+]2c3c1ccc1c(Cl)cc[n+](c13)[Ir-3]213([c]2ccccc2-c2ccc4ccccc4[n+]21)[c]1ccccc1-c1ccc2ccccc2[n+]13.F[P-](F)(F)(F)(F)F [Complex 10]	relatively low when compared with complex 9	enhanced with addition of helicase only
